Reference: PMC6934747
These are yes or no findings as the source states them, for the method shown. In cells and extracts the contact can be indirect. Some binding calls cover weakened binding; strength is not graded here. Sequences can lack the tags named with a protein.

Biological target: T1, myc-tagged human Crebl2 (human) (UniProt O60519)
T1 sequence: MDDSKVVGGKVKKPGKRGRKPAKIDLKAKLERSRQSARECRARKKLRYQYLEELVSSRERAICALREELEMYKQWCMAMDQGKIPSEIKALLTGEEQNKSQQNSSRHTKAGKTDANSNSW
Test: co-IP; myc-CREBL2 precipitated with anti-Myc tag antibody (9b11) and ProteinA/G beads from lysates of transfected cells (HEK293T by the legend, NIH3T3 by the methods); lysis buffer 50 mM Tris pH7.5, 150 mM NaCl, 1% Triton-X; 3xHA-CREBRF detected by anti-HA blot; with or without rapamycin treatment of the cells (no effect on the amount co-precipitated)

B1: 3xHA-tagged human Crebrf (protein, UniProt Q8IUR6 1-639)
chain: MPQPSVSGMDPPFGDAFRSHTFSEQTLMSTDLLANSSDPDFMYELDREMNYQQNPRDNFLSLEDCKDIENLESFTDVLDNEGALTSNWEQWDTYCEDLTKYTKLTSCDIWGTKEVDYLGLDDFSSPYQDEEVISKTPTLAQLNSEDSQSVSDSLYYPDSLFSVKQNPLPSSFPGKKITSRAAAPVCSSKTLQAEVPLSDCVQKASKPTSSTQIMVKTNMYHNEKVNFHVECKDYVKKAKVKINPVQQSRPLLSQIHTDAAKENTCYCGAVAKRQEKKGMEPLQGHATPALPFKETQELLLSPLPQEGPGSLAAGESSSLSASTSVSDSSQKKEEHNYSLFVSDNLGEQPTKCSPEEDEEDEEDVDDEDHDEGFGSEHELSENEEEEEEEEDYEDDKDDDISDTFSEPGYENDSVEDLKEVTSISSRKRGKRRYFWEYSEQLTPSQQERMLRPSEWNRDTLPSNMYQKNGLHHGKYAVKKSRRTDVEDLTPNPKKLLQIGNELRKLNKVISDLTPVSELPLTARPRSRKEKNKLASRACRLKKKAQYEANKVKLWGLNTEYDNLLFVINSIKQEIVNRVQNPRDERGPNMGQKLEILIKDTLGLPVAGQTSEFVNQVLEKTAEGNPTGGLVGLRIPTSKV
Question: How did the binding turn out when B1 was run?
Answer: binds
